# Results from PubChem BioAssay.
# This is a selection; strong and weak results do not stand in their true shares.
# Assays:
# [1] = inhibitors of PAF-induced NFkB signaling in CF airway cells, dose response, cell-based, uHTS hits, panel, cytotoxicity readout (AID 624344); settings: CF bronchial epithelial cells, PAF-induced NFkB reporter inhibition, with PAF, run 1; at 79 µM (top of the series)
# [2] = as above; settings: CF bronchial epithelial cells, PAF-induced NFkB reporter inhibition, with PAF, run 2; at 79 µM (top of the series)
structure (smiles),measurement,setting,value
COc1c(O)cc2c(c1OC)-c1ccc(OC)c(=O)cc1C(NC(C)=O)CC2 (configuration not stated),inhibition,[1],-1.95%
same,inhibition,[2],14.2%
